Test system: picrotoxin induced convulsions in rats
Format: in vivo, rat
Details: pretreated rats; picrotoxin 10 mg/kg s.c.

CN1C(=O)CN=C(c2ccccc2)c2cc(Cl)ccc21 [diazepam]
Influence on picrotoxin induced lethal convulsions: remained unchanged

Source: patent publication US4921960A, “Quinoline thioethers” (priority 1987, dated 1990)
